The values that follow are results of earlier work, collected in patent US20210387990A1, “METHOD FOR PRODUCING DIMETHOXYBENZENE COMPOUND” (TAIHO PHARMACEUTICAL CO., LTD., priority 2018, published 2021).

Series [1] relates to fibroblast growth factor receptor (FGFR). Particulars: reported in PTL 4 to 8; cited from earlier work.
For series [2] the following is noted: reported in PTL 4 to 8; cited from earlier work.

Consider `C=CC(=O)N1CC[C@H](n2nc(C#Cc3cc(OC)cc(OC)c3)c3c(N)ncnc32)C1` [compound A, (S)-1-(3-(4-amino-3-((3,5-dimethoxyphenyl)ethynyl)-1H-pyrazolo[3,4-d]pyrimidin-1-yl)pyrrolidin-1-yl)-2-propen-1-one], for which, in series [1], the “inhibitory activity on the fibroblast growth factor receptor (FGFR)” value was “excellent inhibitory activity”. In addition, the antitumor activity result in series [2] is reported as “exhibiting antitumor activity”.
